Results as given in article PMC11196586, “Molecular insight into interactions between the Taf14, Yng1 and Sas3 subunits of the NuA3 complex” (Nature Communications, 2024).
These are yes or no findings as the source states them, for the method shown.

Amino acid sequences for entries named in this document (tags omitted). Residues count along the entry.
UniProt P35189, residues 1-137: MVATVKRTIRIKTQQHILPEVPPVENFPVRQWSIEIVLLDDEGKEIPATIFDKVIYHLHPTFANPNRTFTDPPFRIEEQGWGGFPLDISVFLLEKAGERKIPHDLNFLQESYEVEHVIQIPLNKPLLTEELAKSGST

Biological target: Taf14 YEATS domain (aa 1-137) (S. cerevisiae) (UniProt P35189)
Experiment: NMR titration; 1H,15N HSQC of 0.05-0.2 mM 15N-labeled Taf14 proteins, 298 K, unlabeled peptide or Yng1EBM-PHD added; Tris-HCl or PBS, pH 6.6-7.5; apparent Kd from CSPs, 1:1 stoichiometry; both purified

Binder: EPKLLLKINLKK (N-terminal acetyl (Ac-); C-terminal amide (-NH2)) [Yng1EBM peptide (aa 113-124 of Yng1), Ac-…-NH2]
- binding: no binding
